Results are given in words; binding and its absence hold for the method and conditions named. For some of these results: In cells and extracts the contact can be indirect. Some entries that bind do so weakly or less than the wild type.

Protein sequences, listed by entry. Tags and fused reporters are not part of them.
UniProt P26641: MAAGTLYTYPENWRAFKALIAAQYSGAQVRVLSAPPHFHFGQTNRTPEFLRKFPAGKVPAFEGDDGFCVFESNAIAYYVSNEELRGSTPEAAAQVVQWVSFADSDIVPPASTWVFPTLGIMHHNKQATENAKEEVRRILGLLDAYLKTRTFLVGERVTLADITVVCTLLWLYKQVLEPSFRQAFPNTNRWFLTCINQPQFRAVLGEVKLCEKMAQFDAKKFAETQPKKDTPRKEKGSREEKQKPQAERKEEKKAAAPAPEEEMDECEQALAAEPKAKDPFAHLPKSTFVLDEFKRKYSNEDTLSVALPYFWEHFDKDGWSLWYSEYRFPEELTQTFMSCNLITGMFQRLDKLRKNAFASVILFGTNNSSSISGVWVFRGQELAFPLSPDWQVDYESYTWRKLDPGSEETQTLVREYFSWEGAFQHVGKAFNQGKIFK

Binding data for four molecules are collected here from article doi:10.1101/2025.10.13.682107, “Oxidative stress sensing by the translation elongation machinery promotes production of detoxifying selenoproteins” (bioRxiv, 2025).

Experiment [1] deals with 3XFLAG-tagged EEF1D, wild type (human (cDNA from HCT116)) (UniProt P29692). Description: co-IP; 3XFLAG immunoprecipitation (FLAG-M2 antibody on Protein G Dynabeads) from HEK293T lysate, 2 h at 4 °C; Co-IP lysis buffer with 0.5% Triton X-100, 150 mM KOAc, pH 7.4.
Experiment [2] concerns the target endogenously Strep-tagged EEF1G (human (endogenous in HEK293T)) (UniProt P26641). Description: pull-down; strep-EEF1G pulldown from HEK293T cells in the presence of 1 mM reduced glutathione (GSH); western blot.
Experiment [3] shares this target. In words: pull-down; StreptactinXT affinity purification of endogenous Twin-Strep-tagged EEF1G from HEK293T lysate, 2 h at 4 °C; eluted with 20 mM biotin.
Experiment [4] shares this target. In words: condition: only with 1 mM oxidized glutathione (GSSG); mass photometry; purified EEF1H (co-purified from HEK293T through strep-EEF1G) incubated with 1 mM oxidized glutathione (GSSG) before measurement.
Experiment [5] addresses EEF1G (eukaryotic elongation factor 1 subunit gamma), endogenous (human (endogenous in HEK293T)) (UniProt P26641). Description: pull-down; Glutathione Sepharose 4B incubated with HEK293T lysate, 2 h at 4 °C; eluted with 10 mM reduced glutathione; recovered proteins seen by Coomassie staining and western blot; EEF1G held by its ligand glutathione. (A western blot detects proteins with antibodies after separation by electrophoresis.)

“EEF1G (eukaryotic elongation factor 1 subunit gamma), endogenous (from UniProt P26641 1-437)”: in experiment [1], the binding result is listed as “binds”.

B1: EEF1D, endogenous (natural protein, human (endogenous in HEK293T), UniProt P29692 1-281, looked up)
chain: MATNFLAHEKIWFDKFKYDDAERRFYEQMNGPVAGASRQENGASVILRDIARARENIQKSLAGSSGPGASSGTSGDHGELVVRIASLEVENQSLRGVVQELQQAISKLEARLNVLEKSSPGHRATAPQTQHVSPMRQVEPPAKKPATPAEDDEDDDIDLFGSDNEEEDKEAAQLREERLRQYAEKKAKKPALVAKSSILLDVKPWDDETDMAQLEACVRSIQLDGLVWGASKLVPVGYGIRKLQIQCVVEDDKVGTDLLEEEITKFEEHVQSVDIAAFNKI
notes: EEF1D (guanine nucleotide exchange factor subunit of EEF1H), human, endogenous in HEK293T; source: endogenous, HEK293T lysate
Regarding B1, the figures for the binding entry in experiment [2], in experiment [3] and in experiment [4] were “binds”, “binds” and “no binding”, respectively.

B2: valine tRNA synthase (VARS), endogenous (enzyme, human (endogenous in HEK293T), UniProt P26640 1-1264, looked up)
chain: MSTLYVSPHPDAFPSLRALIAARYGEAGEGPGWGGAHPRICLQPPPTSRTPFPPPRLPALEQGPGGLWVWGATAVAQLLWPAGLGGPGGSRAAVLVQQWVSYADTELIPAACGATLPALGLRSSAQDPQAVLGALGRALSPLEEWLRLHTYLAGEAPTLADLAAVTALLLPFRYVLDPPARRIWNNVTRWFVTCVRQPEFRAVLGEVVLYSGARPLSHQPGPEAPALPKTAAQLKKEAKKREKLEKFQQKQKIQQQQPPPGEKKPKPEKREKRDPGVITYDLPTPPGEKKDVSGPMPDSYSPRYVEAAWYPWWEQQGFFKPEYGRPNVSAANPRGVFMMCIPPPNVTGSLHLGHALTNAIQDSLTRWHRMRGETTLWNPGCDHAGIATQVVVEKKLWREQGLSRHQLGREAFLQEVWKWKEEKGDRIYHQLKKLGSSLDWDRACFTMDPKLSAAVTEAFVRLHEEGIIYRSTRLVNWSCTLNSAISDIEVDKKELTGRTLLSVPGYKEKVEFGVLVSFAYKVQGSDSDEEVVVATTRIETMLGDVAVAVHPKDTRYQHLKGKNVIHPFLSRSLPIVFDEFVDMDFGTGAVKITPAHDQNDYEVGQRHGLEAISIMDSRGALINVPPPFLGLPRFEARKAVLVALKERGLFRGIEDNPMVVPLCNRSKDVVEPLLRPQWYVRCGEMAQAASAAVTRGDLRILPEAHQRTWHAWMDNIREWCISRQLWWGHRIPAYFVTVSDPAVPPGEDPDGRYWVSGRNEAEAREKAAKEFGVSPDKISLQQDEDVLDTWFSSGLFPLSILGWPNQSEDLSVFYPGTLLETGHDILFFWVARMVMLGLKLTGRLPFREVYLHAIVRDAHGRKMSKSLGNVIDPLDVIYGISLQGLHNQLLNSNLDPSEVEKAKEGQKADFPAGIPECGTDALRFGLCAYMSQGRDINLDVNRILGYRHFCNKLWNATKFALRGLGKGFVPSPTSQPGGHESLVDRWIRSRLTEAVRLSNQGFQAYDFPAVTTAQYSFWLYELCDVYLECLKPVLNGVDQVAAECARQTLYTCLDVGLRLLSPFMPFVTEELFQRLPRRMPQAPPSLCVTPYPEPSECSWKDPEAEAALELALSITRAVRSLRADYNLTRIRPDCFLEVADEATGALASAVSGYVQALASAGVVAVLALGAPAPQGCAVALASDRCSIHLQLQGLVDPARELGKLQAKRVEAQRQAQRLRERRAASGYPVKVPLEVQEADEAKLQQTEAELRKVDEAIALFQKML
notes: valine tRNA synthase (VARS), human, endogenous in HEK293T; source: endogenous, HEK293T lysate
In the case of B2, the binding result in experiment [3] is “binds”.

B3: EEF1B, endogenous (natural protein, human (endogenous in HEK293T), UniProt P24534 1-225, looked up)
chain: MGFGDLKSPAGLQVLNDYLADKSYIEGYVPSQADVAVFEAVSSPPPADLCHALRWYNHIKSYEKEKASLPGVKKALGKYGPADVEDTTGSGATDSKDDDDIDLFGSDDEEESEEAKRLREERLAQYESKKAKKPALVAKSSILLDVKPWDDETDMAKLEECVRSIQADGLVWGSSKLVPVGYGIKKLQIQCVVEDDKVGTDMLEEQITAFEDYVQSMDVAAFNKI
notes: EEF1B (guanine nucleotide exchange factor subunit of EEF1H), human, endogenous in HEK293T; source: endogenous, HEK293T lysate
For the molecule B3, the binding result in experiment [3] and in experiment [5] was “binds” throughout.
